Patent publication US4798834A, “Optionally substituted (3β-9,10-didehydro-2,3-dihydro ergoline as serotonergic function enhancement” (Eli Lilly and Company, priority 1987, dated 1989)

Molecular target: 5-HT1 receptor
Assay: binding to 5-HT1 sites ([3H]serotonin displacement, rat brain frontal cortex)
Parameters: species or system rat (Wistar)
Details: 2 nM [3H]serotonin
Experimental: All radioactive ligands were obtained from New England Nuclear, Boston, Mass., USA. Specific binding was determined as the difference between total binding and nonspecific binding. Eleven concentrations of each of the compounds tested were used between 0.1 and 10,000 nM. All samples were run in duplicate.

## O=C(CCCN1CCC2(CC1)C(=O)NCN2c1ccccc1)c1ccc(F)cc1 [spiperone, reference compound]
  IC50: 400 nM
